This assay addresses T1, Bacillus subtilis PhoD, mature domain (Bacillus subtilis strain 168), P42251.
T1 chain: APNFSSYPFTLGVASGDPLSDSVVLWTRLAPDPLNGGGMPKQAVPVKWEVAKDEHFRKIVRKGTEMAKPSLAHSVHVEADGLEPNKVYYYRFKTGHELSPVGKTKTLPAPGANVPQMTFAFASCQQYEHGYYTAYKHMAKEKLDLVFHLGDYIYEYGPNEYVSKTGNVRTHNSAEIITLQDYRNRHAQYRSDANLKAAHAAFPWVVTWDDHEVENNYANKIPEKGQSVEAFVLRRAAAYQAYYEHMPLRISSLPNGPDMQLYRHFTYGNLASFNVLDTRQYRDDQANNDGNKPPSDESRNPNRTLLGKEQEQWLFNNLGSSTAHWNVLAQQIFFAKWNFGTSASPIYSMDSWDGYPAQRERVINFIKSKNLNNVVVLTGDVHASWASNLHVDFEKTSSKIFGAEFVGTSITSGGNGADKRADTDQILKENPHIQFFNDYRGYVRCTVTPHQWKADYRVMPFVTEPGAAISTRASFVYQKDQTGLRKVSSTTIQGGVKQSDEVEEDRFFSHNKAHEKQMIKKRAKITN
Put plainly: SEC-MALS; size-exclusion multi-angle laser light scattering; 20 mM Hepes, pH 7.5, 400 mM NaCl, 2 mM calcium acetate; flow rate 0.4 ml/min; both purified. Conditions: remark: other sources report otherwise.

No constants are given. Whether binding was seen depends on the method and setting.

B1: Bacillus subtilis PhoD, mature domain, P42251 57-583 (enzyme)
chain: APNFSSYPFTLGVASGDPLSDSVVLWTRLAPDPLNGGGMPKQAVPVKWEVAKDEHFRKIVRKGTEMAKPSLAHSVHVEADGLEPNKVYYYRFKTGHELSPVGKTKTLPAPGANVPQMTFAFASCQQYEHGYYTAYKHMAKEKLDLVFHLGDYIYEYGPNEYVSKTGNVRTHNSAEIITLQDYRNRHAQYRSDANLKAAHAAFPWVVTWDDHEVENNYANKIPEKGQSVEAFVLRRAAAYQAYYEHMPLRISSLPNGPDMQLYRHFTYGNLASFNVLDTRQYRDDQANNDGNKPPSDESRNPNRTLLGKEQEQWLFNNLGSSTAHWNVLAQQIFFAKWNFGTSASPIYSMDSWDGYPAQRERVINFIKSKNLNNVVVLTGDVHASWASNLHVDFEKTSSKIFGAEFVGTSITSGGNGADKRADTDQILKENPHIQFFNDYRGYVRCTVTPHQWKADYRVMPFVTEPGAAISTRASFVYQKDQTGLRKVSSTTIQGGVKQSDEVEEDRFFSHNKAHEKQMIKKRAKITN
Turning to B1, the binding result is recorded as “no binding”.

Source of the values: publication PMC4223295, “Crystal Structure of the Bacillus subtilis Phosphodiesterase PhoD Reveals an Iron and Calcium-containing Active Site” (The Journal of Biological Chemistry, 2014).
